US8404866B2, “Substituted heterocyclic mercaptosulfonamide metalloprotease inhibitors” (Florida State University Research Foundation, priority 2008, dated 2013)
For some assays here: For at least one compound, name, drawing or mass did not settle the structure. Some entries share one result that the patent states for a list of compounds.

Legend:
infarcted left ventricle = details: early, short-term treatment after myocardial infarction; cited from earlier work
[1] = tested on: MMPs expressed in hCASMCs, hMSCs, or both cell lines; assay: Selection of promising inhibitors by Ki; type: biochemical, human; details: selection criterion; MMPs targeted not specified per compound

Row | Structure (SMILES) | cardiac structure and function (infarcted left ventricle) | Ki [1] [nM]
1 | C[C@H]1c2cccc(O)c2C(=O)C2=C(O)[C@]3(O)C(=O)C(C(N)=O)=C(O)[C@@H](N(C)C)[C@@H]3[C@@H](O)[C@@H]21 [doxycycline] | preserves cardiac structure and function | 
2 | NC(=O)N1C[C@H](NS(=O)(=O)c2ccc(Oc3ccccc3)cc2)[C@@H](S)C1 (racemic) [Example 1, (±)-N-Carbamoyl-trans-3-(4-phenoxybenzenesulfonamido)-4-mercaptopyrrolidine] |  | < 50
